PubChem BioAssay AID743255 (National Center for Advancing Translational Sciences (NCATS), 2014)
The campaign covered roughly 390,000 compounds. About 910 (0.23%) were called active. The shares of active, inactive and inconclusive entries below differ from those in the screen. The call rests on the fitted dose curve; in most records, active means well fitted inhibition curve with a large enough effect; inconclusive means small, poorly fitted or top-dose-only effect; inactive means no such curve, though single readings can be large or run the other way. Where the call is inconclusive, the potency comes from a doubtful curve fit.

Sequences of proteins named here, by UniProt entry; tags and fusion partners are left off. A change or cut given only in a name is not applied to a line headed by its entry.
UniProt O94782: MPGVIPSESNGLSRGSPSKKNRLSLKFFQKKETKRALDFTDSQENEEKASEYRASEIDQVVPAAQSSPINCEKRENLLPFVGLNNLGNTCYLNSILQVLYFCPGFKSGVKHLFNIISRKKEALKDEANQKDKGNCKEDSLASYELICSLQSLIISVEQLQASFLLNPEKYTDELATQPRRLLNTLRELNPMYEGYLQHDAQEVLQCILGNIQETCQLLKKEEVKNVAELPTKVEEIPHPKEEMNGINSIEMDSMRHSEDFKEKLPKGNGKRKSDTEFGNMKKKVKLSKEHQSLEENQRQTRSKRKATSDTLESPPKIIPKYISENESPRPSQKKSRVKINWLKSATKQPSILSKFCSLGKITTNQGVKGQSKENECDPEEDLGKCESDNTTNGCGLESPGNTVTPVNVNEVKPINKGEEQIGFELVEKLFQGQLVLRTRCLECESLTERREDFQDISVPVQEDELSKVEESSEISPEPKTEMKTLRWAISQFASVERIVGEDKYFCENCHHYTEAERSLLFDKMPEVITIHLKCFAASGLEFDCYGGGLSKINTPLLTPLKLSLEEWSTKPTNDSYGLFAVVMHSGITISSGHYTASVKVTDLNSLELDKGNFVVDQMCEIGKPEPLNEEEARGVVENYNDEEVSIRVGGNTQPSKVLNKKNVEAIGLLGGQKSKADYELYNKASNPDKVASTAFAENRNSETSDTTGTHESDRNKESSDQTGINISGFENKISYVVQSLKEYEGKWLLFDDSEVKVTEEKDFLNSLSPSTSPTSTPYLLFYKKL

Molecular target: Ubiquitin carboxyl-terminal hydrolase 1 (Homo sapiens) (UniProt O94782)
Assay: Inhibitors of USP1/UAF1: Primary Screen; further: nearly all actives have a fitted effect of over 60% in size
Settings: recombinant USP1/UAF1, Ub-Rhodamine cleavage fluorescence; activity change, negative = inhibition: at 57.1 µM (top of the series)
Outline: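 High-throughput fluorogenic screen: 1nM USP1/UAF1 complex, Ub-Rho substrate 150nM final, 50mM HEPES pH 7.8 with 0.5mM EDTA, 0.1 mg/ml BSA, 1mM TCEP and 0.01% Tween-20.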
On the % scale 0 is the no-effect control and ±100 the full control effect; potency means the concentration at half of the fitted maximal effect.

Compound	Potency	activity change, negative = inhibition
Cn1c(=O)oc2cc(S(=O)(=O)Nc3cccc4c3CCCC4)ccc21	inconclusive: 39.8 µM [inhibitor, partial curve, poor fit]	
CC1=C(C(=O)N(C)C)CC(CC(=O)NC2CCCC2)C(=O)N1CCCN1CCCC1=O (stereo not given)	inconclusive: 56.2 µM [inhibitor, partial curve, poor fit]	
CCC(C)Oc1cc(-c2ccnc(Nc3cccc(Cl)c3)n2)ccn1 (stereo not given)	inconclusive: 7.94 µM [inhibitor, partial curve]	
CC1CCc2c(sc3nnn(Cc4cccc(C(=O)OC(C)C)c4)c(=O)c23)C1 (stereo not given)	inconclusive: 7.94 µM [inhibitor, partial curve]	
CCCSc1oc(-c2ccco2)nc1S(=O)(=O)c1ccc(Br)cc1	inconclusive: 2 µM [inhibitor, partial curve]	
COCCCNC(=O)Cn1nc(N2CCN(c3ccccc3)CC2)ccc1=O	inconclusive: 1.26 µM [inhibitor, full curve, poor fit]	
CN(CC(=O)Nc1cccc(Cl)c1)S(=O)(=O)/C=C/c1ccccc1	inconclusive: 7.94 µM [inhibitor, partial curve, poor fit]	
CCOc1ccc(N(C(=O)CNC(=O)c2cccs2)C(C(=O)NCC2CCCO2)c2ccc(OC)c(OC)c2)cc1 (stereo not given)	inconclusive: 6.31 µM [inhibitor, single point]	
O=C(Nc1ccc(Cl)cc1)Nc1ccccc1Sc1ncc([N+](=O)[O-])s1	inconclusive: 28.2 µM [inhibitor, single point]	
Nc1[nH]n2c(=O)cc(-c3ccccc3)nc2c1N=Nc1ccccc1	inconclusive: 28.2 µM [inhibitor, partial curve]	
CCN(CC)CCn1c(=O)n(-c2ccc(Cl)cc2)c(=O)c2c3c(sc21)CN(C)CC3	inconclusive: 44.7 µM [inhibitor, partial curve]	
Nc1nonc1-n1nnc(C(=O)N/N=C/c2ccccc2Br)c1CN1CCCC1	inconclusive: 5.01 µM [inhibitor, partial curve]	
CCOc1ccc(NC(=O)CC2C(=O)N(c3ccccc3)C(=O)N2CCc2cccs2)cc1 (stereo not given)	inconclusive: 7.08 µM [inhibitor, single point]	
Cc1ccc(C)c(N2CCN(C(=O)c3cnn(C(C)(C)C)c3C3CCN(C(=O)OC(C)(C)C)CC3)CC2)c1	inconclusive: 44.7 µM [inhibitor, single point]	
O=C(CSc1nnc(CNC(=O)c2ccco2)o1)Nc1ccc(F)cc1	inconclusive: 4.47 µM [inhibitor, full curve, poor fit]	
COc1cc(C2CC(=O)N3CN(Cc4ccco4)CSC3=C2C#N)ccc1OCc1ccccc1 (stereo not given)	inconclusive: 44.7 µM [inhibitor, partial curve, poor fit]	
C=CC(=O)Nc1cccc(Oc2ccnc3[nH]ccc23)c1	inconclusive: 44.7 µM [inhibitor, partial curve, poor fit]	
OCCNC(=S)Nc1ccc2nsnc2c1	inconclusive: 31.6 µM [inhibitor, partial curve]	
CCOC(=O)Cc1csc(NS(=O)(=O)c2ccc(Cl)cc2)n1		inactive: -20%
O=C(Nc1ccccc1Cl)c1cc(S(=O)(=O)N2CCCCC2)ccc1N1CCOCC1		inactive: 2.49%
COC(=O)Cn1c(=NC(=O)c2ccc3c(c2)OCCO3)sc2ccccc21	inconclusive: 11.2 µM [inhibitor, full curve, poor fit]	
COc1ccc(NC(=O)C(Cc2c[nH]c3ccccc23)NC(=O)OC(C)(C)C)cc1 (stereo not given)	inconclusive: 6.31 µM [inhibitor, full curve]	

Compound	Potency	activity change, negative = inhibition
CCN1C(=O)/C(=C\c2ccco2)C(C(=O)OC)=C1C		inactive: -16.6%
O=[N+]([O-])c1cccc(-c2ccc(C(=S)N3CCN(c4ccccc4)CC3)o2)c1		inactive: -19%
CN(C)CCNc1c(N)c(=O)oc2ccccc12	inconclusive: 50.1 µM [inhibitor, partial curve, poor fit]	
COc1cccc(-c2nnc(-c3ccc(C(F)(F)F)cc3)o2)c1OC		inactive: -12.4%
COc1ccc(S(=O)(=O)N2CCCC2C(=O)NCc2ccccc2Cl)cc1 (stereo not given)	inconclusive: 1.26 µM [inhibitor, partial curve]	
COc1ccc(NS(=O)(=O)c2cc(C(=O)O)ccc2C)cc1	inconclusive: 31.6 µM [inhibitor, single point]	
CCOC(=O)N1CCC(N2C(=O)c3ccc(C(=O)NCc4ccc(F)cc4)cc3C2=O)CC1	inconclusive: 11.2 µM [inhibitor, partial curve, poor fit]	
Cc1cc(C)nc(Sc2nc(Nc3ccccc3)nc(Sc3nc(C)cc(C)n3)n2)n1		inactive: -6.24%
CCOc1ccc(S(=O)(=O)N2CCOCC2)cc1NC(=O)CN1C(=O)NC(C)(c2ccccc2)C1=O (stereo not given)	inconclusive: 7.94 µM [inhibitor, partial curve]	
CCOC(=O)c1c(S(=O)(=O)N2CCC(C(=O)NCc3cccc(C)c3)CC2)c(C)n(C)c1C		inactive: -25%
COc1ccc(Cn2c(=O)n(-c3ccc(F)c(Cl)c3)c(=O)c3c2c2cc(OC)ccc2n3C)cc1	inconclusive: 11.2 µM [inhibitor, partial curve, poor fit]	
Cc1ccc(N=Nc2c(C)[nH]n(-c3ccccc3)c2=O)cc1Br		inactive: 0.899%
COc1ccccc1NC(=O)CSc1nc(O)c(C/C=C/c2ccccc2)c(=O)[nH]1		inactive: -1.95%
C[C@H](CO)N1C[C@H](C)[C@H](CN(C)C(=O)c2ccccn2)Oc2cc(C#Cc3ccc(F)cc3)ccc2S1(=O)=O	inconclusive: 39.8 µM [inhibitor, partial curve]	
O=C(O)c1ccccc1Nc1ccccc1C(=O)O		inactive: -8.72%
O=C(Nc1ccc(F)cc1)c1nc(S(=O)(=O)Cc2ccccc2)ncc1Cl	inconclusive: 50.1 µM [inhibitor, partial curve, poor fit]	
O=C(NC1CCOC1=O)c1ccccc1 (stereo not given)	inconclusive: 8.91 µM [inhibitor, single point]	
COc1ccccc1-c1cc(C(F)(F)F)nc(S(=O)(=O)CCCC(=O)Nc2cc(Br)ccc2O)n1		inactive: -5.68%
CCc1cccc2c3c([nH]c12)C(CC)(CC(=O)O)OCC3 (stereo not given)	inconclusive: 70.8 µM [inhibitor, partial curve, poor fit]	
Oc1c(Cl)cc(Cl)cc1/C=N/NC(=S)NC1CC2C=CC1C2 (stereo not given)		inactive: -11.8%
COc1ccc(CN2CCOCCOCCOCC2)cc1	inconclusive: 50.1 µM [inhibitor, partial curve, poor fit]	
CCOC(=O)C1CCN(C(=O)COC(=O)c2cc([N+](=O)[O-])ccc2N2CCOCC2)CC1	inconclusive: 3.16 µM [inhibitor, full curve]	

Compound	Potency	activity change, negative = inhibition
Cc1ccc(CNS(=O)(=O)c2ccc(F)c(F)c2)n1C	inconclusive: 25.1 µM [inhibitor, partial curve]	
CC(NS(=O)(=O)c1cc2c3c(c1)CCN3C(=O)CC2)c1ccccc1 (stereo not given)	inconclusive: 0.126 µM [inhibitor, full curve, poor fit]	
CC(=O)c1ccc(N2CCN(c3ccc(S(=O)(=O)NCCCN(C)C)cc3[N+](=O)[O-])CC2)cc1		inactive: -24.1%
CC(C)CCn1c(N)c(S(=O)(=O)c2cccs2)c2nc3ccccc3nc21	inconclusive: 39.8 µM [inhibitor, partial curve, poor fit]	
CCOc1ccccc1NC(=O)COc1cccc2c(=O)n(CCOC)ccc12	inconclusive: 7.94 µM [inhibitor, partial curve, poor fit]	
CC1CCC(CC(=O)O)(C(=O)O)CC1 (stereo not given)	inconclusive: 50.1 µM [inhibitor, partial curve, poor fit]	
Oc1ccc(N=Nc2ccccc2)o1		inactive: -20.4%
O=C(NCc1cccs1)[C@@H]1CCCN1S(=O)(=O)c1ccccc1F	inconclusive: 8.91 µM [inhibitor, partial curve, poor fit]	
CC1CCC(NC(=O)c2ccc3c(c2)N(Cc2cccc(Cl)c2)C(=O)c2ccccc2S3=O)CC1 (stereo not given)	inconclusive: 63.1 µM [inhibitor, partial curve, poor fit]	
C=CC(C)(C)c1c(O)c(CC=C(C)C)c(O)c2c(=O)c3ccc(O)c(O)c3oc12		inactive: -17.8%
COc1ccc(NC(=O)c2oc3ccc(S(=O)(=O)N(C)C4CCCCC4)cc3c2C)cc1Cl	inconclusive: 1.26 µM [inhibitor, full curve]	
O=C(CSc1nc(-c2ccccc2)nc2c1CCCC2)N1CCOCC1		inactive: -22.1%
CC(C)(C)n1nnnc1C(c1ccc(Cl)cc1)N(Cc1cccnc1)Cc1ccco1 (stereo not given)	inconclusive: 44.7 µM [inhibitor, partial curve]	
Cc1cc(N2CCN(C)CC2)nc2ccc(NC(=O)Nc3ccccc3)cc12		inactive: -36.5%
COc1ccc(OC)c(C(=O)NC(CC(N)=O)c2ccc(NCC3CC3)c([N+](=O)[O-])c2)c1 (stereo not given)		inactive: -23.4%
CCOC1(OCC)C(c2ccc(N)cc2)C(C#N)(C#N)C1(OCC)OCC (stereo not given)	inconclusive: 39.8 µM [inhibitor, partial curve, poor fit]	
CC1(OC(=O)C2CCCC2)C(=O)C=C2C=C(c3ccsc3)N(C3CC3)C=C2C1=O (stereo not given)	inconclusive: 25.1 µM [inhibitor, single point]	
CCOc1cc2c(C#N)c(N3CCCCC3)nc(N)c2c(N)n1	inconclusive: 31.6 µM [inhibitor, single point]	
Cc1sc(N)c(C(=O)c2ccccc2Cl)c1C		inactive: -22.7%
CN(C)S(=O)(=O)Nc1ccc(-c2cn3ccsc3n2)cc1		inactive: -12.7%
C/C(=N\Nc1nc2c(s1)CCCC2)c1ccccc1		inactive: -11.1%

Compounds listed so far containing a tert-butyl group (three):
Compound	Potency	activity change, negative = inhibition
Cc1ccc(C)c(N2CCN(C(=O)c3cnn(C(C)(C)C)c3C3CCN(C(=O)OC(C)(C)C)CC3)CC2)c1	inconclusive: 44.7 µM [inhibitor, single point]	
COc1ccc(NC(=O)C(Cc2c[nH]c3ccccc23)NC(=O)OC(C)(C)C)cc1 (stereo not given)	inconclusive: 6.31 µM [inhibitor, full curve]	
CC(C)(C)n1nnnc1C(c1ccc(Cl)cc1)N(Cc1cccnc1)Cc1ccco1 (stereo not given)	inconclusive: 44.7 µM [inhibitor, partial curve]	
